Source: the supplement of paper PMC8104966
± gives the standard deviation of the averaged measurements. The list shows a part of the results. Single values are uncertain here, since repeats match poorly.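 U2OS cells expressing ACE2 were combined with U2OS cells expressing full-length spike, and imaging quantified fusion as the fraction of nuclei displaying both cell types' fluorescent markers. Non-toxic compounds with a fusion z-score under -3, i.e., over three standard deviations below the plate's DMSO wells, are called inhibitory hits.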

tested on: U2OS ACE2 x SARS-CoV-2 spike co-culture; test: cell-cell fusion (fraction fused) z-score vs plate DMSO control; higher = more fusion; settings: 30 µM; 5 h; toxicity class: non-toxic, passed QC

Question: `CCCCCCCCc1ccc(-c2ccc(C(=O)O)cc2)cc1` was tested. Which “cell-cell fusion (z-score)” value did it give?
Answer: inactive: 2.98

Question: How did the “cell-cell fusion (z-score)” value turn out when `COc1ccc(-c2oc3cc(OC)c(OC)c(OC)c3c(=O)c2OC)cc1` was run?
Answer: inactive: 1.71

Question: With `NC(=O)c1ccc([N+](=O)[O-])cc1Cl` as the molecule, how does the “cell-cell fusion (z-score)” value read?
Answer: inactive: 3.25

Question: With `Cc1cn[nH]c1` as the molecule, how does the “cell-cell fusion (z-score)” value read?
Answer: inactive: -0.506

Question: Which “cell-cell fusion (z-score)” value does the source give for `CC1(C(=O)O)C2CCC(O2)C1(C)C(=O)O` (stereo not given) [Cantharidic Acid] here?
Answer: inactive: 1.39

Question: How did the “cell-cell fusion (z-score)” value turn out when `CC(C(=O)O)[C@H]1CCC2C3CC=C4C[C@@H](O)CC[C@]4(C)C3CC[C@@]21C` (stereo partly drawn) [3beta-HYDROXY-23,24-BISNORCHOL-5-ENIC ACID] was run?
Answer: inactive: 2.78

Question: With `CC(=O)O[C@H]1CCC2(C)C3=C(CCC2C1(C)C)[C@@]1(C)CC[C@@H](C(C)CCC=C(C)C)[C@]1(C)CC3` (stereo not given in full) as the molecule, how does the “cell-cell fusion (z-score)” value read?
Answer: inactive: 1.13

Question: Which “cell-cell fusion (z-score)” value does the source give for `N=C(N)NCC1COC2(CCCCC2)O1.O=S(=O)(O)O` (stereo not given) here?
Answer: inactive: 1.15

Question: How did the “cell-cell fusion (z-score)” value turn out when `CO[C@H]1C[C@@H]2CC[C@@H](C)[C@@](O)(O2)C(=O)C(=O)N2CCCC[C@H]2C(=O)O[C@H]([C@H](C)C[C@@H]2CC[C@@H](O)[C@H](OC)C2)CC(=O)[C@H](C)/C=C(\C)[C@@H](O)[C@H](OC)C(=O)[C@H](C)C[C@H](C)/C=C/C=C/C=C/1C` [Rapamycin (Sirolimus)] was run?
Answer: -4.31 ± 5.8

Question: For `CCN(CC)CCOC(=O)c1ccc(N)cc1.Cl` [Procaine hydrochloride], which “cell-cell fusion (z-score)” value is on record?
Answer: inactive: 1.76

Question: How did the “cell-cell fusion (z-score)” value turn out when `O=C(c1cc(O)c(O)c([N+](=O)[O-])c1)c1ccccc1F` was run?
Answer: inactive: 0.476

Question: For `Nc1nc(OCC2CCCCC2)c2nc[nH]c2n1`, which “cell-cell fusion (z-score)” value is on record?
Answer: inactive: -0.12

Question: For `Cc1ccccc1-n1c(Cn2ncc3c(N)ncnc32)nc2cccc(C)c2c1=O`, which “cell-cell fusion (z-score)” value is on record?
Answer: inactive: 0.386

Question: `c1cncc(CN2CCC(n3ncc4c(N5CCOCC5)nc(-c5ccc6[nH]ccc6c5)nc43)CC2)c1` was tested. Which “cell-cell fusion (z-score)” value did it give?
Answer: active: -4.81

Question: `CC(=O)OCC1=C(C(=O)[O-])N2C(=O)[C@@H](NC(=O)CCCC(N)C(=O)[O-])C2SC1.[Zn+2]` (stereo not given in full) was tested. Which “cell-cell fusion (z-score)” value did it give?
Answer: inactive: 1.53

Question: `CCC[C@H](NC(=O)/C(C#N)=C/c1cccc(Br)n1)c1ccccc1` was tested. Which “cell-cell fusion (z-score)” value did it give?
Answer: inactive: 2.35

Question: Which “cell-cell fusion (z-score)” value does the source give for `Cc1cnc(C(=O)NCCc2ccc(S(=O)(=O)NC(=O)NC3CCCCC3)cc2)cn1` [Glipizide] here?
Answer: inactive: 1.27

Question: `COc1ccc2c(c1)OCC(Cc1ccc(OC)c(OC(C)=O)c1)C2=O` (stereo not given) was tested. Which “cell-cell fusion (z-score)” value did it give?
Answer: inactive: 2.92

Question: For `CC(C)NCC(O)c1ccc2ccccc2c1.Cl` (stereo not given), which “cell-cell fusion (z-score)” value is on record?
Answer: inactive: 0.284

Question: `CC(C)(C)NC[C@H](O)c1ccc(O)c(CO)c1.Cl` was tested. Which “cell-cell fusion (z-score)” value did it give?
Answer: inactive: 0.361
